Assay results as given in PMC11148166.

Key:
V5-TurboID-IRF1 (mouse) = molecular target: T1, V5-TurboID-IRF1 (mouse) (UniProt P15314); test: proximity labelling; TurboID; V5-TurboID-IRF1 (IRF1-BirA*) in Irf1-/- RAW 264.7 cells, Dox 4 h, untreated or IFNβ or IFNγ 3 h, 500 µM biotin 10 min; nuclear extracts, streptavidin beads, mass spectrometry; log2FC >= 0.5 above BirA*-NLS control, Padj <0.05
T1 sequence: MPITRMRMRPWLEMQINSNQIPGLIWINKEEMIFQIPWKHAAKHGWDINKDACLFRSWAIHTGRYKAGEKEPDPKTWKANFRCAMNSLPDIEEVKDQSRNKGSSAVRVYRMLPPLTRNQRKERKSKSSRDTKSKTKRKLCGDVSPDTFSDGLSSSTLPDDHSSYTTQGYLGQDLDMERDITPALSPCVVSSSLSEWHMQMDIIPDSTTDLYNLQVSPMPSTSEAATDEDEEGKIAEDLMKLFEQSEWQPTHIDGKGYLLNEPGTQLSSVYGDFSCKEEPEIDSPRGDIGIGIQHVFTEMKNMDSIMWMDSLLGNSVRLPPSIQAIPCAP

STAT1-TurboID-V5 (mouse) = molecular target: T2, STAT1-TurboID-V5 (mouse) (UniProt P42225); test: proximity labelling; TurboID; STAT1-TurboID-V5 (STAT1-BirA*) in Stat1-/- RAW 264.7 cells, Dox 24 h, untreated or IFNβ or IFNγ 3 h, 500 µM biotin 10 min; nuclear extracts, streptavidin beads, mass spectrometry; log2FC >= 1 above BirA*-NLS control, Padj <0.05
T2 sequence: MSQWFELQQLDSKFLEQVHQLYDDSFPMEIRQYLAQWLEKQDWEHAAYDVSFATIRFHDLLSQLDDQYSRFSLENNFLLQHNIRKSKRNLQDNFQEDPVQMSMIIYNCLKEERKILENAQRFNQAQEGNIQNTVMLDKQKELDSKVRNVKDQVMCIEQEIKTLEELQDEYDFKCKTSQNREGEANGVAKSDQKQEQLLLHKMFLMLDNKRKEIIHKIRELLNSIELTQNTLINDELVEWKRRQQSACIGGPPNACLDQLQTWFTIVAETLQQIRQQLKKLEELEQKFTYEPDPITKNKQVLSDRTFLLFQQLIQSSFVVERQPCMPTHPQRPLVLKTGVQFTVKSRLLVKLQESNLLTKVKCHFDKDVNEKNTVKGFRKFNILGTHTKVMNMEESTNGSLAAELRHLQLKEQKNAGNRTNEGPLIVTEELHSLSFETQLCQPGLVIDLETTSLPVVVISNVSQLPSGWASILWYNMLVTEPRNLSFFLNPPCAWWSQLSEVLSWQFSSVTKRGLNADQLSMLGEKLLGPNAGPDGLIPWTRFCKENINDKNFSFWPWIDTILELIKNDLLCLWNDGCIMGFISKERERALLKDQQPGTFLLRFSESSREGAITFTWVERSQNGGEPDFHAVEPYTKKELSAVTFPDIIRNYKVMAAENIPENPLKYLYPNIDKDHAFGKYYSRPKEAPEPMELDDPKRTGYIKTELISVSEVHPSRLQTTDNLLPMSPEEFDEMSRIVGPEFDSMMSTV

binding (V5-TurboID-IRF1 (mouse)): binds
binding (STAT1-TurboID-V5 (mouse)): binds
B1: ATF3 (protein, UniProt Q60765 1-181)
chain: MMLQHPGQVSASEVSATAIVPCLSPPGSLVFEDFANLTPFVKEELRFAIQNKHLCHRMSSALESVTVNNRPLEMSVTKSEAAPEEDERKRRRRERNKIAAAKCRNKKKEKTECLQKESEKLESVNAELKAQIEELKNEKQHLIYMLNLHRPTCIVRAQNGRTPEDERNLFIQQIKEGTLQS

No constants are given. Whether binding was seen depends on the method and setting. In cells and extracts the contact can be indirect. Here binding means that the protein was enriched with, or labelled near, the bait; the list need not be complete. Tags and fused reporters may be left off the sequences shown.
